No constants are given. Whether binding was seen depends on the method and setting. In cells and extracts the contact can be indirect. Some entries that bind do so weakly or less than the wild type.

Chains of the proteins cited; added tags and fusions are not shown.
UniProt P17931: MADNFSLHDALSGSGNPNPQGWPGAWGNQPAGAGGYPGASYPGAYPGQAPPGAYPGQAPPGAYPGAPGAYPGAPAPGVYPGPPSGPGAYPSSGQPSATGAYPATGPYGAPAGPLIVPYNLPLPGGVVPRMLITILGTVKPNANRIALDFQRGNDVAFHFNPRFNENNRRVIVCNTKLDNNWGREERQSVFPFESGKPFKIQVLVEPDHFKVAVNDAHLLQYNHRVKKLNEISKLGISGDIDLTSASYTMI
UniProt P14618: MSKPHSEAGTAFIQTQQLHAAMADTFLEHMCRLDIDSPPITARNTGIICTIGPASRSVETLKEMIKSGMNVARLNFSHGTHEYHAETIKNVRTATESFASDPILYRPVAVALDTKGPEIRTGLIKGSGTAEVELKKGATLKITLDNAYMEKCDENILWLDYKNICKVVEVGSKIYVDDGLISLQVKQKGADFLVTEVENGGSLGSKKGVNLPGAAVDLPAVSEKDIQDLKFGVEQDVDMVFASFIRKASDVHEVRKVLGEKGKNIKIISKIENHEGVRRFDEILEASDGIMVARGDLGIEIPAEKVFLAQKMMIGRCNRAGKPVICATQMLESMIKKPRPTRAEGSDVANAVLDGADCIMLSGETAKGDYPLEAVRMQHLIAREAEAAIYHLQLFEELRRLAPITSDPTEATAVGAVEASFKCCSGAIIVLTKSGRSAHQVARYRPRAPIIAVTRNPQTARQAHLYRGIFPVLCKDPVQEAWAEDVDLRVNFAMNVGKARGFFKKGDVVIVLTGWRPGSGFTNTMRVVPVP
UniProt P19474: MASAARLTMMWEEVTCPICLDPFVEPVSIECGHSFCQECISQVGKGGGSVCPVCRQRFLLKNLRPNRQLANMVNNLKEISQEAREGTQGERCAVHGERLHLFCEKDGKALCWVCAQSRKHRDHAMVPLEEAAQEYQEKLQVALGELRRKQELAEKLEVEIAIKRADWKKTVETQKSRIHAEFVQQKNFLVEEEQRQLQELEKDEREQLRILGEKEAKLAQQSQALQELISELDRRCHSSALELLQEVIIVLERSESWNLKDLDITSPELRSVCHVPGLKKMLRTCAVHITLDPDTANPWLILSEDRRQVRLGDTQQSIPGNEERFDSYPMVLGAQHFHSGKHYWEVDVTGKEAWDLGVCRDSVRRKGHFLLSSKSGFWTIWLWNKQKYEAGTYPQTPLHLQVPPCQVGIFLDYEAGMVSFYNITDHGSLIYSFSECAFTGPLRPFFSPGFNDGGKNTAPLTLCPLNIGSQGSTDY

Experiment [1] has as its target Flag-Lgals3 (UniProt P17931). As to the kind of experiment: co-IP; 293T cells transfected with epitope-tagged plasmids; lysates immunoprecipitated with tag antibodies, protein A/G beads, immunoblot.
Experiment [2] has as its target Flag-Lgals3 (UniProt P17931). Description: co-IP; HK-2 cells transfected with epitope-tagged plasmids; lysates immunoprecipitated with tag antibodies (Flag, Myc, His), protein A/G beads, immunoblot. For orientation: Immunoblotting shows a protein as a band on a membrane.
The next experiment has as its target His-PKM2 (UniProt P14618). Described as above.
Experiment [3] deals with Lgals3 (endogenous, HK-2 cells) (human (endogenous in HK-2)) (UniProt P17931). As to the kind of experiment: co-IP; lysates of HK-2 cells immunoprecipitated with Lgals3 or PKM2 antibodies, immunoblot; endogenous proteins.

With “His-PKM2 (from UniProt P14618 1-531) (enzyme)”, the binding entry with Flag-Lgals3 [1] and with Flag-Lgals3 [2] was “binds” throughout.

With “Myc-Trim21 (from UniProt P19474 1-475) (enzyme)”, in the experiment with His-PKM2, the binding entry was “binds”. Regarding “PKM2 (endogenous, HK-2 cells) (from UniProt P14618 1-531) (enzyme)”, the binding result in experiment [3] is “binds”.
